Results are given in words; binding and its absence hold for the method and conditions named. In cells and extracts the contact can be indirect. Some entries that bind do so weakly or less than the wild type.
Target: RNA helicase DEAD-box protein 5 (DDX5) (endogenous, mouse TH17 cells) (mouse) (UniProt Q61656)
Assay: co-immunoprecipitation with anti-DDX5, immunoblot

Protein sequences, listed by entry. Tags and fused reporters are not part of them. Lines headed by an entry give the natural chain unless they say otherwise; changes in a name come on top. Chains listed by the source or under a name are the forms on record and can include a tag or linker.
UniProt Q61656: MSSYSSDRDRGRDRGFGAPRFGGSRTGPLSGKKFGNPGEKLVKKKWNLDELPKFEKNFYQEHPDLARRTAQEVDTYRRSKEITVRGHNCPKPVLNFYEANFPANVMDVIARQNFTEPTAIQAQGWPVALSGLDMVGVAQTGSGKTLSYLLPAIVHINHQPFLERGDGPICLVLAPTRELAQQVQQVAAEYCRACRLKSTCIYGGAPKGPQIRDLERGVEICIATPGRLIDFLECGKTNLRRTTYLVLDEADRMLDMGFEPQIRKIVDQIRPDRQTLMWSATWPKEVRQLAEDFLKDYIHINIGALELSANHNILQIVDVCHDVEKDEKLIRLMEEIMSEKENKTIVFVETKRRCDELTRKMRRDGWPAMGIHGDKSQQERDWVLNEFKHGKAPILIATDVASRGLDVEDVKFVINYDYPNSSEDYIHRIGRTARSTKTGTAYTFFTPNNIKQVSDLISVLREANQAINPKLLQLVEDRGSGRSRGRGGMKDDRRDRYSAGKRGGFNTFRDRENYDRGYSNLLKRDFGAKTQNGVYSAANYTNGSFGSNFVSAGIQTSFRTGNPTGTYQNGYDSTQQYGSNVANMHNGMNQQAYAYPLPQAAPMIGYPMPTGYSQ
RORγt (endogenous, mouse TH17 cells) (P51450, form named): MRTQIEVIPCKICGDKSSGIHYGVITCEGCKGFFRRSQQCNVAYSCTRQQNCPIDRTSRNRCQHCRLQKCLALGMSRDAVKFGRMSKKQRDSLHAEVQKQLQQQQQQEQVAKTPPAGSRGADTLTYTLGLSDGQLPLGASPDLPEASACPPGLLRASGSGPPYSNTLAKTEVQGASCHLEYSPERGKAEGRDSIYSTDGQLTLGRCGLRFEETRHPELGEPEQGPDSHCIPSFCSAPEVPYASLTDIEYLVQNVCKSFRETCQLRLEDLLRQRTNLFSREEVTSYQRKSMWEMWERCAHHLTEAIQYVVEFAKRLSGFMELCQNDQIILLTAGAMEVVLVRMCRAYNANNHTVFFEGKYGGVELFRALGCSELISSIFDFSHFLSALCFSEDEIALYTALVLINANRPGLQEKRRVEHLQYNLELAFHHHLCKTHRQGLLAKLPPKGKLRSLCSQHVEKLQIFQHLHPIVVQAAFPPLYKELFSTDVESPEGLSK

binding: binds
Substance: RORγt (endogenous, mouse TH17 cells) (from UniProt P51450 1-495) (receptor)

— US20170016004A1, “DDX5 AND ASSOCIATED NON-CODING RNAs AND MODULATION OF TH17 EFFECTOR FUNCTION” (priority 2015, published 2017)
